Measurements: patent US20100144743A1, “COMPOSITIONS AND METHODS FOR INHIBITION OF TYROSINE KINASES” (BOARD OF REGENTS, THE UNIVERSITY OF TEXAS SYSTEM, priority 2006, published 2010)
At least one structure is not confirmed: it was looked up by name or label, or the drawing left a doubt.

System: HIF-1
Experiment: HIF-1 GFP/DsRFP expression (G/R) in C6#4 cells stimulated by CoCl2
Type: cell-based
Conditions: read-out: G/R (EC-50)

CN(C)CCNC(=O)c1ccc(-c2cnc3c(Nc4ccc(Oc5ccccc5)cc4)nccn23)cc1 [LG2-11]
EC50: 2.2 µM
